Assay results taken from the supplement of paper PMC12819154, “High-throughput peptide-centric local stability assay extends protein–ligand identification to membrane proteins, tissues and bacteria” (Nature Structural & Molecular Biology, 2025).
Some of the results follow. Most entries show no effect beyond the scatter of the controls.

By UniProt entry, the sequences of proteins in these tests, tags left out. Where a name states a change or a piece, a line headed by the entry shows the natural chain unless it says otherwise.
UniProt Q8C0C0: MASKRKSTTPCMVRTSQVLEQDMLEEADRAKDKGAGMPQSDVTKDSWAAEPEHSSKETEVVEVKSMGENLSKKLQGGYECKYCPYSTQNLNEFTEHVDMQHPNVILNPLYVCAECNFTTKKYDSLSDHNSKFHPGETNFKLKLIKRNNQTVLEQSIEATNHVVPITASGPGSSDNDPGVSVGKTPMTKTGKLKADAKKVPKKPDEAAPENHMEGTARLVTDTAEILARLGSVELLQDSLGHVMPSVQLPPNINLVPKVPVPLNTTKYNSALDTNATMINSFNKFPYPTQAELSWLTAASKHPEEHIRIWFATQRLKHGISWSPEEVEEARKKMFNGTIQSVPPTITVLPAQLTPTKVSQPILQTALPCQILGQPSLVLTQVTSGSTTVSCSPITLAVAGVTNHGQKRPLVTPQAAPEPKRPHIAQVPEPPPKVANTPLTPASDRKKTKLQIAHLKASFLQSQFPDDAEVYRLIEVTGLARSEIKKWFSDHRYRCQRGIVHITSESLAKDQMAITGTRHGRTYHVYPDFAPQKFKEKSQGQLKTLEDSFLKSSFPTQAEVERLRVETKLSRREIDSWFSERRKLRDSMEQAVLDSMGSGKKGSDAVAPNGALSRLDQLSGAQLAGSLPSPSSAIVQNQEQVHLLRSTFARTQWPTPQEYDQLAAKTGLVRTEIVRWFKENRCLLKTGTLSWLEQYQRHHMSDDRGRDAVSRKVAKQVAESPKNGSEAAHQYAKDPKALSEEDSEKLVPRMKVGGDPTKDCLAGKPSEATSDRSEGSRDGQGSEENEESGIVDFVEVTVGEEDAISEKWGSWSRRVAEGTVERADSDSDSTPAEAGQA
UniProt Q8BP78: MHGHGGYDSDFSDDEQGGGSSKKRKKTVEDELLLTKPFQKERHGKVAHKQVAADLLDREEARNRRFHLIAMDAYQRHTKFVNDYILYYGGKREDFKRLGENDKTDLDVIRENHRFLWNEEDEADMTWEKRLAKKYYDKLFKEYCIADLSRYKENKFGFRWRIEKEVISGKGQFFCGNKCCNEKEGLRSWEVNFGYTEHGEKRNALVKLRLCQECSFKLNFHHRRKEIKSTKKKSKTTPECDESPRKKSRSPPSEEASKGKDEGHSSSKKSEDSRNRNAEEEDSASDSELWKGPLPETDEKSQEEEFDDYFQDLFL
UniProt Q8CFX1: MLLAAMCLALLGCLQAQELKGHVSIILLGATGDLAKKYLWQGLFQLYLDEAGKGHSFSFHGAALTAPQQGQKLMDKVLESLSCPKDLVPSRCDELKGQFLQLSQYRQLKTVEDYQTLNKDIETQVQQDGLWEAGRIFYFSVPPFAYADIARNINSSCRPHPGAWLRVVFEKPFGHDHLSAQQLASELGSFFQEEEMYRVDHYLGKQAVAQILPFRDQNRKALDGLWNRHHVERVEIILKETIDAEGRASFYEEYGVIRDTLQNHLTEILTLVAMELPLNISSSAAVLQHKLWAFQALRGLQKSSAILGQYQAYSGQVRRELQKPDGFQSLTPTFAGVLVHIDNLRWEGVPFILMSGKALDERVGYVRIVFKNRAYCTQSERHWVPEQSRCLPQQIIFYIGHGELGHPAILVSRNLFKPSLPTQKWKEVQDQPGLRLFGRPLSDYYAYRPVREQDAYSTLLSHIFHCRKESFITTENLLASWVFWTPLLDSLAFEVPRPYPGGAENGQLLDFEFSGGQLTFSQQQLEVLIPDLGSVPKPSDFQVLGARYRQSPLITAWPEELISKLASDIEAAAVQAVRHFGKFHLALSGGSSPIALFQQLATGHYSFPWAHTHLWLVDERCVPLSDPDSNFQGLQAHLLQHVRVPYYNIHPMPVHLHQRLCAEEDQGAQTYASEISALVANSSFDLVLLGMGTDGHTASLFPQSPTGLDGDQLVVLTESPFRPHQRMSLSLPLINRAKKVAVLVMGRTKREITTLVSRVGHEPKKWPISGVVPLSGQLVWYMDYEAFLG
UniProt Q8BWQ1: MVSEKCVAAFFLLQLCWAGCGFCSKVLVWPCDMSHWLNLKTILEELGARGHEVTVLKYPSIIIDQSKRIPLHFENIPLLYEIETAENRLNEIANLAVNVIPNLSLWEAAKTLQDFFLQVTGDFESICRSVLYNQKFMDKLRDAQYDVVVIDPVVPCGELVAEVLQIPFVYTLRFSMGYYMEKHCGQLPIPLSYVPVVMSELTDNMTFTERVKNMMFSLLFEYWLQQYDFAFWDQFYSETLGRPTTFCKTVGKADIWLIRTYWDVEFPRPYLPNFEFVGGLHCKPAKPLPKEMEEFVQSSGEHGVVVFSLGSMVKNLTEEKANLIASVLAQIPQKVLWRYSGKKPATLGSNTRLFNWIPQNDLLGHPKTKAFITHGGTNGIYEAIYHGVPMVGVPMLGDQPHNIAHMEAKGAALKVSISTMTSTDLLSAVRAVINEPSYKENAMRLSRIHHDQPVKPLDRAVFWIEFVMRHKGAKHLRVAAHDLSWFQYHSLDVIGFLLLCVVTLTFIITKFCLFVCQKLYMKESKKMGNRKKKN
UniProt Q8BJU2: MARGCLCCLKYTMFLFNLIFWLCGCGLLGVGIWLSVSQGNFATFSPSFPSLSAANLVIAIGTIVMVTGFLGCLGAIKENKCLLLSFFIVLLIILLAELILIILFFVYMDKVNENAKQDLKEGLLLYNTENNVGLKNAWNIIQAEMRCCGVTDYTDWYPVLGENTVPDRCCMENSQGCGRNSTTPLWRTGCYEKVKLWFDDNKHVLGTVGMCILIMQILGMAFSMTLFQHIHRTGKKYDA
UniProt Q8BMG8: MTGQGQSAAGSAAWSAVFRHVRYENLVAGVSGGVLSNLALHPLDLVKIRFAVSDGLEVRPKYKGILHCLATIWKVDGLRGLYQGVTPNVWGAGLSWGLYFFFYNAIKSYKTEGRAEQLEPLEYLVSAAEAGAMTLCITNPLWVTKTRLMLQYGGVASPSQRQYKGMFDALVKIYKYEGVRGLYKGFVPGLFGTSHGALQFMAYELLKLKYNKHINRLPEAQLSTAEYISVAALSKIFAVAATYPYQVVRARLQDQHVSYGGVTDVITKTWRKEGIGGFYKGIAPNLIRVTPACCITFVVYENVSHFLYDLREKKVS
UniProt Q8BUX5: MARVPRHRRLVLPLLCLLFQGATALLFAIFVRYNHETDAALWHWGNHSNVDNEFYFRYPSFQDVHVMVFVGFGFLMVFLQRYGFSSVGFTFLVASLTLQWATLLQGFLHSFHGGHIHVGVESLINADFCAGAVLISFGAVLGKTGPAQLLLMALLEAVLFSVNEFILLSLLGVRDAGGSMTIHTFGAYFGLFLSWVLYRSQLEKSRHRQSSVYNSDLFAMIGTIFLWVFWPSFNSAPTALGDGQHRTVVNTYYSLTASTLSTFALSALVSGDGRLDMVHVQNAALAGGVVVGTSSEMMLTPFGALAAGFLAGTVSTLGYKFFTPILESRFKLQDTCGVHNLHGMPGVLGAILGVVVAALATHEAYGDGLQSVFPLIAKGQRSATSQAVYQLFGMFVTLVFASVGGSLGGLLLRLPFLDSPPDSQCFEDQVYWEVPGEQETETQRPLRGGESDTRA
UniProt Q8BWW4: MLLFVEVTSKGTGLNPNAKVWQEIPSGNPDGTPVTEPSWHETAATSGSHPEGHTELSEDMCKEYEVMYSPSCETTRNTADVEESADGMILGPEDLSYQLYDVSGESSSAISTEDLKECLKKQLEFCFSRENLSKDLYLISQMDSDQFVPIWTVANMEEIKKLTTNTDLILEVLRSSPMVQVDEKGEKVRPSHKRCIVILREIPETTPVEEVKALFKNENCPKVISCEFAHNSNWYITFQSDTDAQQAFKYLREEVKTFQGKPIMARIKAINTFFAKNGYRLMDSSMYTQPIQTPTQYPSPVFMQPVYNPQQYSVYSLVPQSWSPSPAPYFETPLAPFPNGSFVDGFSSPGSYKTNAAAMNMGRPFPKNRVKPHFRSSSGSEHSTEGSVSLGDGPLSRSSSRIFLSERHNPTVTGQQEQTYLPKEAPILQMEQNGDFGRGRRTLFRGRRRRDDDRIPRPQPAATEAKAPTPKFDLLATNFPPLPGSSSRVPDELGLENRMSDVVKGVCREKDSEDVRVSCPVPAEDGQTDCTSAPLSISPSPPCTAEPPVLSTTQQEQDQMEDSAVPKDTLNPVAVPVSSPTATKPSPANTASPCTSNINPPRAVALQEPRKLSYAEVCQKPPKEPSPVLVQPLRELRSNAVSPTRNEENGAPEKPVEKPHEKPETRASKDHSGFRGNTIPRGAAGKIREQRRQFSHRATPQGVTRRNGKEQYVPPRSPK
UniProt Q8BX94, whole entry: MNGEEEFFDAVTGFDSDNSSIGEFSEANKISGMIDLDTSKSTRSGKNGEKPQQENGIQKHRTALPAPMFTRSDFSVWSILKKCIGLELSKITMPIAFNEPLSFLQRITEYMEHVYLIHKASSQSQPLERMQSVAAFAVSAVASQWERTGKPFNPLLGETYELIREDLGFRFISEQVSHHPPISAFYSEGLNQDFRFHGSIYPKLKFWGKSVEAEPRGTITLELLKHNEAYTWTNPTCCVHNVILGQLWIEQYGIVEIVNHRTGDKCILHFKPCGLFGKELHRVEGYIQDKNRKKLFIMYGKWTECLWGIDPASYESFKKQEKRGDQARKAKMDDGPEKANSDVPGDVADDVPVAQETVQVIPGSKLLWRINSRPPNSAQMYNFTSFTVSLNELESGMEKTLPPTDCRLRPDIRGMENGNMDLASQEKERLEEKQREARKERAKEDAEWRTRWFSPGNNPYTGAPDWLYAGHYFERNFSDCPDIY
UniProt Q8BX02: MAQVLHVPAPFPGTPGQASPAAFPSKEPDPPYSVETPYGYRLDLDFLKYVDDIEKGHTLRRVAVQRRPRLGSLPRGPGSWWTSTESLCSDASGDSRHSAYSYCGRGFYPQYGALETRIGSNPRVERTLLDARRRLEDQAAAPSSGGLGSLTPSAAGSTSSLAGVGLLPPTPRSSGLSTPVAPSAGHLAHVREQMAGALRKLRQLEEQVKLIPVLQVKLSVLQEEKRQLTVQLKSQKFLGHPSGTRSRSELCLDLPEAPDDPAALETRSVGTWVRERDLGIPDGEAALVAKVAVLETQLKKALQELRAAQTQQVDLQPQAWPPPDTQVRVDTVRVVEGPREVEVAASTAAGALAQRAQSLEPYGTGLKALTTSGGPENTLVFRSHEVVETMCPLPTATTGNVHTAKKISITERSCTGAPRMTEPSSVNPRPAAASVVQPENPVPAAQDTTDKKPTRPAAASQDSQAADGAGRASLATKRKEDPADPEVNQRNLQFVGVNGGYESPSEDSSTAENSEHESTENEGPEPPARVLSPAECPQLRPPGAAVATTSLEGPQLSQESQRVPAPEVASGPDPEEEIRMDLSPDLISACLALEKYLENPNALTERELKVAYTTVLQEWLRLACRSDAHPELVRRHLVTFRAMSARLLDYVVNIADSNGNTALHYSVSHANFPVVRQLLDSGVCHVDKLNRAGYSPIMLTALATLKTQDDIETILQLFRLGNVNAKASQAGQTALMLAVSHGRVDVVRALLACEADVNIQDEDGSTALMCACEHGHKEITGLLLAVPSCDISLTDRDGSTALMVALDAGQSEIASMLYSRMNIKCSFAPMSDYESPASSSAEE
UniProt Q8CE96: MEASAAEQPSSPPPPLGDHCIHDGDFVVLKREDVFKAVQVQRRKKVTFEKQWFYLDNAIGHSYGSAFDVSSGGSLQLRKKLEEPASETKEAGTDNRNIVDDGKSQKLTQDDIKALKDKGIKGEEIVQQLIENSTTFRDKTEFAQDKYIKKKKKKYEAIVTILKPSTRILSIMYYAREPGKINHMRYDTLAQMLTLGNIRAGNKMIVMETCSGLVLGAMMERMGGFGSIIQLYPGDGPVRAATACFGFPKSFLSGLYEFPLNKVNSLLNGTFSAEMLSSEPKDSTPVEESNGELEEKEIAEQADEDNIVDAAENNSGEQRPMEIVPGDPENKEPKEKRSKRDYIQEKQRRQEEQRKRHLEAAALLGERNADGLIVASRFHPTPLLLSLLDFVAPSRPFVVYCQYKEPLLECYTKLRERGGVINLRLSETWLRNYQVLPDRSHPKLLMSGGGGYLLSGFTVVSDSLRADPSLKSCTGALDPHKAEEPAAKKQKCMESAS
UniProt Q8BZ09: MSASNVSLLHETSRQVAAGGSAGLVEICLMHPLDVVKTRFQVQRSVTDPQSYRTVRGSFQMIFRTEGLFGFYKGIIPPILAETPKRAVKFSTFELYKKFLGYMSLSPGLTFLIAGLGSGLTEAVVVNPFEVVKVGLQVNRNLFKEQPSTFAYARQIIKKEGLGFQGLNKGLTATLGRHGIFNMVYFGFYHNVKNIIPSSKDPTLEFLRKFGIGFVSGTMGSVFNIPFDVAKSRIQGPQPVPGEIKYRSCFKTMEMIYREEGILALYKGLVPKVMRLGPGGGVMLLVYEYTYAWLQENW
UniProt Q8BTW3, whole entry: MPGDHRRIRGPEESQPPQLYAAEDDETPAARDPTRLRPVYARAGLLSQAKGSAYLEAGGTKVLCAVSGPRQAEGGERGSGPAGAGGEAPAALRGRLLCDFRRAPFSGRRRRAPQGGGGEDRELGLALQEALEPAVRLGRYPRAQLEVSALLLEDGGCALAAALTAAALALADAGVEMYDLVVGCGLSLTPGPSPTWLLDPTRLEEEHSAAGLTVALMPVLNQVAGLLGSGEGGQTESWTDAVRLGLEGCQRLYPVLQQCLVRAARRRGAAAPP

compound: CN[C@@H]1C[C@H]2O[C@@](C)([C@@H]1OC)n1c3ccccc3c3c4c(c5c6ccccc6n2c5c31)C(=O)NC4 [staurosporine]; assay: log2 fold change of pooled soluble protein (PISA), ligand vs vehicle (log2 ratio); higher = more thermally stabilized; conditions: ligand concentration: 20 uM; assay format: PISA pool 52.9/55.5/58.6 C

Target | log2 fold change of pooled soluble protein
UniProt Q8CBW3 | -0.0659
UniProt Q8C0C0 | -0.132
UniProt Q8C5W0 | -0.0577
UniProt Q8BPE4 | 0.044
UniProt Q8C878 | 0.0328
UniProt Q8BLY1 | 0.0284
UniProt Q8BNX1 | -0.00471
UniProt Q8BP78 | 0.0498
UniProt Q8BVW3 | -0.066
UniProt Q8BWN8 | 0.217
UniProt Q8BRM2 | 0.357
UniProt Q8CFX1 | -0.0576
UniProt Q8C6B9 | -0.0163
UniProt Q8BWQ1 | 0.124
UniProt Q8BIW1 | -0.235
UniProt Q8BYW1 | 0.154
UniProt Q8BJU2 | 0.313
UniProt Q8BK08 | 0.000683
UniProt Q8BH43 | -0.0565

Target | log2 fold change of pooled soluble protein
UniProt Q8BMG8 | 0.252
UniProt Q8BUX5 | 0.12
UniProt Q8C0D5 | 0.0263
UniProt Q8BWW4 | -0.0532
UniProt Q8BPZ8 | -0.0261
UniProt Q8BSY0 | 0.0507
UniProt Q8BX94 | -0.642
UniProt Q8BH69 | 0.0317
UniProt Q8BX02 | -0.245
UniProt Q8BUK6 | -0.048
UniProt Q8CAK3 | -0.131
UniProt Q8BYW9 | 0.153
UniProt Q8BUR4 | 0.503
UniProt Q8BWU8 | -0.183
UniProt Q8CE96 | 0.0239
UniProt Q8BMS1 | -0.086
UniProt Q8BZ09 | 0.0733
UniProt Q8BTW3 | -0.0138

Reprinted at random: 3 entries already listed, in no set order.
Target | log2 fold change of pooled soluble protein
UniProt Q8BMS1 | -0.086
UniProt Q8BWU8 | -0.183
UniProt Q8C0D5 | 0.0263
